Source: article PMC6381605, “NR4A Nuclear Receptors Target Poly-ADP-Ribosylated DNA-PKcs Protein to Promote DNA Repair”
Construct, isoform or probe ends are uncertain for at least one entry. For some assays here: A weaker result is weaker than the reference pair of the same experiment. For some assays here: At least one verdict rests on a figure or table, not on a statement of the authors.

How the values were obtained:
Assay in all cases: EMSA
NR4A2 C305A = NR4A2 C305A (UniProt Q06219); settings: EMSA: 1 ug protein, 10 mM Tris pH 8, 50 mM NaCl, 1 mM EDTA, 5% glycerol, 5 mM DTT, 20 ng/ul dIdC, 1.25 mg/ml BSA, 20 min room temperature; recombinant protein; label: 32P (alpha-32P-dCTP Klenow fill-in)
NR4A2 CC/AA = NR4A2 CC/AA (UniProt Q06219); settings: EMSA: 1 ug protein, 10 mM Tris pH 8, 50 mM NaCl, 1 mM EDTA, 5% glycerol, 5 mM DTT, 20 ng/ul dIdC, 1.25 mg/ml BSA, 20 min room temperature; recombinant protein; label: 32P (alpha-32P-dCTP Klenow fill-in)
NR4A2 CEAA C280A,E281A = NR4A2 CEAA C280A,E281A (UniProt Q06219); settings: EMSA: 1 ug protein, 10 mM Tris pH 8, 50 mM NaCl, 1 mM EDTA, 5% glycerol, 5 mM DTT, 20 ng/ul dIdC, 1.25 mg/ml BSA, 20 min room temperature; recombinant protein; label: 32P (alpha-32P-dCTP Klenow fill-in)
NR4A2 K303A = NR4A2 K303A (UniProt Q06219); settings: EMSA: 1 ug protein, 10 mM Tris pH 8, 50 mM NaCl, 1 mM EDTA, 5% glycerol, 5 mM DTT, 20 ng/ul dIdC, 1.25 mg/ml BSA, 20 min room temperature; recombinant protein; protein details: GST tag cleaved (PreScission); label: 32P (alpha-32P-dCTP Klenow fill-in)
[1] = molecular target: NR4A2 KRRY K303A,R310T,R311Q,Y317A (UniProt Q06219); settings: EMSA: 1 ug protein, 10 mM Tris pH 8, 50 mM NaCl, 1 mM EDTA, 5% glycerol, 5 mM DTT, 20 ng/ul dIdC, 1.25 mg/ml BSA, 20 min room temperature; recombinant protein; protein details: GST tag cleaved (PreScission); label: 32P (alpha-32P-dCTP Klenow fill-in)
NR4A2 RR/AA R310A,R311A = NR4A2 RR/AA R310A,R311A (UniProt Q06219); settings: EMSA: 1 ug protein, 10 mM Tris pH 8, 50 mM NaCl, 1 mM EDTA, 5% glycerol, 5 mM DTT, 20 ng/ul dIdC, 1.25 mg/ml BSA, 20 min room temperature; recombinant protein; protein details: GST tag cleaved (PreScission); label: 32P (alpha-32P-dCTP Klenow fill-in)
NR4A2 RR/TQ R310T,R311Q = NR4A2 RR/TQ R310T,R311Q (UniProt Q06219); settings: EMSA: 1 ug protein, 10 mM Tris pH 8, 50 mM NaCl, 1 mM EDTA, 5% glycerol, 5 mM DTT, 20 ng/ul dIdC, 1.25 mg/ml BSA, 20 min room temperature; recombinant protein; protein details: GST tag cleaved (PreScission); label: 32P (alpha-32P-dCTP Klenow fill-in)
NR4A2 WT = NR4A2 WT (UniProt Q06219); settings: EMSA: 1 ug protein, 10 mM Tris pH 8, 50 mM NaCl, 1 mM EDTA, 5% glycerol, 5 mM DTT, 20 ng/ul dIdC, 1.25 mg/ml BSA, 20 min room temperature; recombinant protein; protein details: GST tag cleaved (PreScission); label: 32P (alpha-32P-dCTP Klenow fill-in)

GATCCTCGTGCGAAAAGGTCAAGCGCTA / GATCTAGCGCTTGACCTTTTCGCACGAG [NBRE]
binding result (NR4A2 C305A): binds more weakly
binding result (NR4A2 CC/AA): binds more weakly
binding result (NR4A2 CEAA C280A,E281A): binds more weakly
binding result (NR4A2 K303A): binds
binding result [1]: binds
binding result (NR4A2 RR/AA R310A,R311A): binds
binding result (NR4A2 RR/TQ R310T,R311Q): binds
binding result (NR4A2 WT): binds
